Reference: publication PMC9723177
These are yes or no findings as the source states them, for the method shown. In cells and extracts the contact can be indirect. Some results given as binding are weak or reduced against the parent protein; the word gives no strength. Where a sequence is shown, tags or fusion partners need not be part of it.

Target: T1, STAM-binding protein (STAMBP) (human (endogenous in MDA-MB-231 and BT549)) (UniProt O95630)
T1 sequence: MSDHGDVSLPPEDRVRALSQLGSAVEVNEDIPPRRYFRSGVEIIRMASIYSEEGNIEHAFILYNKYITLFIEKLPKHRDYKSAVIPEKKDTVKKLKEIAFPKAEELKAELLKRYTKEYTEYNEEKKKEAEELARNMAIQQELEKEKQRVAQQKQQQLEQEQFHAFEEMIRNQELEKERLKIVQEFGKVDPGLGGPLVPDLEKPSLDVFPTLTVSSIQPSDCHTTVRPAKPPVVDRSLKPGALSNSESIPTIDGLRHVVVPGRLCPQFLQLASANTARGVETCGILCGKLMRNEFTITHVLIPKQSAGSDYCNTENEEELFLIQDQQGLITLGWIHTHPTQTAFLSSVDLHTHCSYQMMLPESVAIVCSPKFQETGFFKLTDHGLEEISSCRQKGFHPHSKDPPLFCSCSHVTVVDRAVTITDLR
Test: co-IP; endogenous proteins in MDA-MB-231 and BT549 cell lysates; antibody on Dynabeads, 4 °C 1 h, 3 washes with PBS containing 0.5% Tween 20

binding: binds
B1: retinoic acid-induced 14 (RAI14) (protein, UniProt Q9P0K7 1-980)
chain: MKSLKAKFRKSDTNEWNKNDDRLLQAVENGDAEKVASLLGKKGASATKHDSEGKTAFHLAAAKGHVECLRVMITHGVDVTAQDTTGHSALHLAAKNSHHECIRKLLQSKCPAESVDSSGKTALHYAAAQGCLQAVQILCEHKSPINLKDLDGNIPLLLAVQNGHSEICHFLLDHGADVNSRNKSGRTALMLACEIGSSNAVEALIKKGADLNLVDSLGYNALHYSKLSENAGIQSLLLSKISQDADLKTPTKPKQHDQVSKISSERSGTPKKRKAPPPPISPTQLSDVSSPRSITSTPLSGKESVFFAEPPFKAEISSIRENKDRLSDSTTGADSLLDISSEADQQDLLSLLQAKVASLTLHNKELQDKLQAKSPKEAEADLSFDSYHSTQTDLGPSLGKPGETSPPDSKSSPSVLIHSLGKSTTDNDVRIQQLQEILQDLQKRLESSEAERKQLQVELQSRRAELVCLNNTEISENSSDLSQKLKETQSKYEEAMKEVLSVQKQMKLGLVSPESMDNYSHFHELRVTEEEINVLKQDLQNALEESERNKEKVRELEEKLVEREKGTVIKPPVEEYEEMKSSYCSVIENMNKEKAFLFEKYQEAQEEIMKLKDTLKSQMTQEASDEAEDMKEAMNRMIDELNKQVSELSQLYKEAQAELEDYRKRKSLEDVTAEYIHKAEHEKLMQLTNVSRAKAEDALSEMKSQYSKVLNELTQLKQLVDAQKENSVSITEHLQVITTLRTAAKEMEEKISNLKEHLASKEVEVAKLEKQLLEEKAAMTDAMVPRSSYEKLQSSLESEVSVLASKLKESVKEKEKVHSEVVQIRSEVSQVKREKENIQTLLKSKEQEVNELLQKFQQAQEELAEMKRYAESSSKLEEDKDKKINEMSKEVTKLKEALNSLSQLSYSTSSSKRQSQQLEALQQQVKQLQNQLAECKKQHQEVISVYRMHLLYAVQGQMDEDVQKVLKQILTMCKNQSQKK
